Reference: patent US20220064276A1
Residue numbers refer to the chain shown, from its start. These are yes or no findings as the source states them, for the method shown. Some binding calls cover weakened binding; strength is not graded here.

Chains of the proteins cited; added tags and fusions are not shown. Lines headed by an entry give the natural chain unless they say otherwise; changes in a name come on top.
UniProt Q14766: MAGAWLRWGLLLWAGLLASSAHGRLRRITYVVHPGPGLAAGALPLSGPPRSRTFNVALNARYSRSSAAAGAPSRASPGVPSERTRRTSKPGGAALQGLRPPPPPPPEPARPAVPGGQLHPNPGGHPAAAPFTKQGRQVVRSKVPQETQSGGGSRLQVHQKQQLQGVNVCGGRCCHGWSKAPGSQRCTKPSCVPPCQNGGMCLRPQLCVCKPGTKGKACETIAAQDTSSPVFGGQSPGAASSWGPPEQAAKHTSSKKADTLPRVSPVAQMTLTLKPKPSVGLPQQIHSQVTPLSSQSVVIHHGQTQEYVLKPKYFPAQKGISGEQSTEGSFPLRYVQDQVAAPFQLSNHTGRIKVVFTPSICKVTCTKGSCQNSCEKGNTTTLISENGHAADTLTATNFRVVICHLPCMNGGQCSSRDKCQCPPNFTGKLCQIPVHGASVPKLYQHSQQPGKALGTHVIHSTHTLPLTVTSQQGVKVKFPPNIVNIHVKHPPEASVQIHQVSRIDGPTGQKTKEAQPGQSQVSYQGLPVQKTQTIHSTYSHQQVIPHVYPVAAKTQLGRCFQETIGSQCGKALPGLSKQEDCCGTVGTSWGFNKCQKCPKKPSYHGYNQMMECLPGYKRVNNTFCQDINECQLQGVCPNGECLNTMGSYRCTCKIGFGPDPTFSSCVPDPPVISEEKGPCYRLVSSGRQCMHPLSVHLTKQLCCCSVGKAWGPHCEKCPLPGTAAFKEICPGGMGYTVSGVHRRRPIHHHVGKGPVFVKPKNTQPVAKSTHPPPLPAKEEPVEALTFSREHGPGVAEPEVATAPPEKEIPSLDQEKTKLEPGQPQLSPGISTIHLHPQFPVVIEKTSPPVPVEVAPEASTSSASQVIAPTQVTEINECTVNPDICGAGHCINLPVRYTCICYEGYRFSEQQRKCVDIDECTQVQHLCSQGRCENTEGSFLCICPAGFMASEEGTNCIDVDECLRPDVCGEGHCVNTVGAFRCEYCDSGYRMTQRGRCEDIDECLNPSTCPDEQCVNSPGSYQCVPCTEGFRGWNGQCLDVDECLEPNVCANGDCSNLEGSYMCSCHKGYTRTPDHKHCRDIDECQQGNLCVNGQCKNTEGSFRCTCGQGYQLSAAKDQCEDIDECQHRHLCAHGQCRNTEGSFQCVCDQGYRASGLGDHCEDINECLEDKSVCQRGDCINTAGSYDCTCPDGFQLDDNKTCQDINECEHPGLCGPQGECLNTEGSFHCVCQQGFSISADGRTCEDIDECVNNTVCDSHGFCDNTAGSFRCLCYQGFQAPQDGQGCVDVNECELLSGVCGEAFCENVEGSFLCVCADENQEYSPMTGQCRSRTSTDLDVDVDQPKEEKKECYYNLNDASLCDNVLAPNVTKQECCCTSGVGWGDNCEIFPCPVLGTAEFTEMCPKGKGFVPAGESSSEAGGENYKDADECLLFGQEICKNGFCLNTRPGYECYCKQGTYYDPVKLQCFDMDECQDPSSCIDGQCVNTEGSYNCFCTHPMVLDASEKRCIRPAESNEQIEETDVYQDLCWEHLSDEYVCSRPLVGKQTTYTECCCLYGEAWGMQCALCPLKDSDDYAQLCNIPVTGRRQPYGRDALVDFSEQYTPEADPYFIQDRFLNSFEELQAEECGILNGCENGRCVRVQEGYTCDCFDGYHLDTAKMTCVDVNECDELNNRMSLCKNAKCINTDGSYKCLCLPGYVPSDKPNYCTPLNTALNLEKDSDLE
UniProt Q8CG19: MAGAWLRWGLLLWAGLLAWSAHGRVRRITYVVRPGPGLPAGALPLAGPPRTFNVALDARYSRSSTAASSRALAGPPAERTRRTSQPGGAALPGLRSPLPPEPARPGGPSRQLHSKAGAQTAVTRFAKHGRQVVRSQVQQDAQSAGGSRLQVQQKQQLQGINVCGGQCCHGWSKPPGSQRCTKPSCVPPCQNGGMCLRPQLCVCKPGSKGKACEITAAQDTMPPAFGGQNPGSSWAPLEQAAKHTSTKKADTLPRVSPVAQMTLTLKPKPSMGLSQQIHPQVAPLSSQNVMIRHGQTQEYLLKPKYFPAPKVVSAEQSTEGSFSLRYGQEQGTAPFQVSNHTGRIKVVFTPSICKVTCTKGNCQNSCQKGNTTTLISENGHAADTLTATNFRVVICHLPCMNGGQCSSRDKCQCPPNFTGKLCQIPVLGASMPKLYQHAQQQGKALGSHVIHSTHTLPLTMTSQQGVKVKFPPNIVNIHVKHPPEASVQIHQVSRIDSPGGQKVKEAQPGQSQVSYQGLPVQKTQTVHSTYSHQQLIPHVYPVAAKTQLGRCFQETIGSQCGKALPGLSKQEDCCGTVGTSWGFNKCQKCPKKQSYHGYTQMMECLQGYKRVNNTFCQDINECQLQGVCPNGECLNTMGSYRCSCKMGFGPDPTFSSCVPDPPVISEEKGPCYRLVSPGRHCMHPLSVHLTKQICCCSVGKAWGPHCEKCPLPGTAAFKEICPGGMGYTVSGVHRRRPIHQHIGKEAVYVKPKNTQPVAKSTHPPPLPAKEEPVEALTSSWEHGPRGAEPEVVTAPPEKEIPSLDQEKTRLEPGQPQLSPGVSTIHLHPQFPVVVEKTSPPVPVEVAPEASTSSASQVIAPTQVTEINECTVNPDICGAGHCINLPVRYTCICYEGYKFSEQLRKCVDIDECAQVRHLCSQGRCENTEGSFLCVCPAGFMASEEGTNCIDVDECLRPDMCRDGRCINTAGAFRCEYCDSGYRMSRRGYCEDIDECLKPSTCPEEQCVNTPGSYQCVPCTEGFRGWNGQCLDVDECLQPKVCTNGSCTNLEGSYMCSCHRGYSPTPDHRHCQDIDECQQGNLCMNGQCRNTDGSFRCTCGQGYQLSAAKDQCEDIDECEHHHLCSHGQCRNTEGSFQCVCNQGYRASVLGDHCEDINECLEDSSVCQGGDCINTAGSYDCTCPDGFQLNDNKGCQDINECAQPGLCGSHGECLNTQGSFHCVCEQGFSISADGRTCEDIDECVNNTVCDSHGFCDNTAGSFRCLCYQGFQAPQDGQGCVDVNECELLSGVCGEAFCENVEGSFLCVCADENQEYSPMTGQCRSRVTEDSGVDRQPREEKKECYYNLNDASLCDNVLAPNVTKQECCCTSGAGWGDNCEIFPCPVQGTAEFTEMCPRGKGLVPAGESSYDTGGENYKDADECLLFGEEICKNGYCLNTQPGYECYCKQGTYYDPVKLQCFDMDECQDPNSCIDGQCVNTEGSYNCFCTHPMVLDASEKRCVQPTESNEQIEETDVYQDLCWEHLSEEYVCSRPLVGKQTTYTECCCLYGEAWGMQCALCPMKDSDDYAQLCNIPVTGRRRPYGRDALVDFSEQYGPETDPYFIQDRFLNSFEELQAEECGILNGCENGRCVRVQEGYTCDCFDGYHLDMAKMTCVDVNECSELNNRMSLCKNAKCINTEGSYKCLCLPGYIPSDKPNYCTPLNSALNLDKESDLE
UniProt Q9NS15: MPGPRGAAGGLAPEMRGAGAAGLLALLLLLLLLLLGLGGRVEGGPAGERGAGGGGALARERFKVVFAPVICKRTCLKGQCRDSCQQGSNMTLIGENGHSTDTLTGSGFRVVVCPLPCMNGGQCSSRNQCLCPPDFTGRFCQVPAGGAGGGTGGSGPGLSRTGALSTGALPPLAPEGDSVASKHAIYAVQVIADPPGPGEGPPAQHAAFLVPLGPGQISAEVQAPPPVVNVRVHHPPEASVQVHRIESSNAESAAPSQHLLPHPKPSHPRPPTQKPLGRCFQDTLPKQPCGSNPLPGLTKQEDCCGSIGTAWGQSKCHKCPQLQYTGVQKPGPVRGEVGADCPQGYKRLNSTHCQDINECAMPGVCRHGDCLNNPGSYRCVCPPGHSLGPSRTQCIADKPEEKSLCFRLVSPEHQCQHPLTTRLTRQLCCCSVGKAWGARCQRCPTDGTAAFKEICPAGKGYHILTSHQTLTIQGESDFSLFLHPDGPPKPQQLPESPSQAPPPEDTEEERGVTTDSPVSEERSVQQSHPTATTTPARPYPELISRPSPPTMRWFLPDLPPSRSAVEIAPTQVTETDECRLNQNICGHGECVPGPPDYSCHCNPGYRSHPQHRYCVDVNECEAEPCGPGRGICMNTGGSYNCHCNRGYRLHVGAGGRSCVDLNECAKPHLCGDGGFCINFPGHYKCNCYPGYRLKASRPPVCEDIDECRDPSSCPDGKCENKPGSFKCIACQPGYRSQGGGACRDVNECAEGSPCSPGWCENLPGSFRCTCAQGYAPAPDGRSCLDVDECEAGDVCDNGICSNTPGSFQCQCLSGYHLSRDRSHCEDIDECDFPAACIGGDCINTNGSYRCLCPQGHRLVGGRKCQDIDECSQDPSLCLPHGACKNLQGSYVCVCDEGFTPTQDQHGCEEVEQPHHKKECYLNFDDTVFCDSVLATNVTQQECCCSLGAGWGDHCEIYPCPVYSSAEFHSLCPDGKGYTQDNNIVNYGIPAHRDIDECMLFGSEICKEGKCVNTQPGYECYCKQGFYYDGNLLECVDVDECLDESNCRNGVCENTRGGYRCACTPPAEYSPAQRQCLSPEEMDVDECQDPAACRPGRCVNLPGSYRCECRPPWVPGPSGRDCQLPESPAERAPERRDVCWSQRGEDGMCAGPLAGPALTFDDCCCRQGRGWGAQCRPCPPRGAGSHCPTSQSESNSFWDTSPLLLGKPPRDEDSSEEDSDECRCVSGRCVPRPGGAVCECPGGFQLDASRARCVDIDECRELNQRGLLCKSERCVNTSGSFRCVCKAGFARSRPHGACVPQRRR
UniProt Q14392: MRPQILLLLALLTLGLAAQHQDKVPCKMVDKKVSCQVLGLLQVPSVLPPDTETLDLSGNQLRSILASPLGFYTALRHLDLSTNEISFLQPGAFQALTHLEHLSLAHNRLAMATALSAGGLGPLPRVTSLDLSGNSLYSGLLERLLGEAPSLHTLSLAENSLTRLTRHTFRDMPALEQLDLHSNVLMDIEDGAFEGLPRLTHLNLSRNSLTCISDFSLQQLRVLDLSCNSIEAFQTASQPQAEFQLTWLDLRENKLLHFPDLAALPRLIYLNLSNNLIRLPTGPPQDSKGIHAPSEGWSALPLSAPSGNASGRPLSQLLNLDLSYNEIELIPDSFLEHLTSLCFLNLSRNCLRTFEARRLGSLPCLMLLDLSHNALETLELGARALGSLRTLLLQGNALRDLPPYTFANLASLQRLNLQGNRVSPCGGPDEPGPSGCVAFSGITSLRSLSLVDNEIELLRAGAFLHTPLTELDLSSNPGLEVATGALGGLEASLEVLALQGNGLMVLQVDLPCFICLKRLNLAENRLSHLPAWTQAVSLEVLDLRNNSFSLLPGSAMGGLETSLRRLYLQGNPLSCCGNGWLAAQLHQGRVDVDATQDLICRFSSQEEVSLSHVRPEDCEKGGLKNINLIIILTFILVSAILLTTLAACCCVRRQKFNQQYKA
UniProt Q86YC3: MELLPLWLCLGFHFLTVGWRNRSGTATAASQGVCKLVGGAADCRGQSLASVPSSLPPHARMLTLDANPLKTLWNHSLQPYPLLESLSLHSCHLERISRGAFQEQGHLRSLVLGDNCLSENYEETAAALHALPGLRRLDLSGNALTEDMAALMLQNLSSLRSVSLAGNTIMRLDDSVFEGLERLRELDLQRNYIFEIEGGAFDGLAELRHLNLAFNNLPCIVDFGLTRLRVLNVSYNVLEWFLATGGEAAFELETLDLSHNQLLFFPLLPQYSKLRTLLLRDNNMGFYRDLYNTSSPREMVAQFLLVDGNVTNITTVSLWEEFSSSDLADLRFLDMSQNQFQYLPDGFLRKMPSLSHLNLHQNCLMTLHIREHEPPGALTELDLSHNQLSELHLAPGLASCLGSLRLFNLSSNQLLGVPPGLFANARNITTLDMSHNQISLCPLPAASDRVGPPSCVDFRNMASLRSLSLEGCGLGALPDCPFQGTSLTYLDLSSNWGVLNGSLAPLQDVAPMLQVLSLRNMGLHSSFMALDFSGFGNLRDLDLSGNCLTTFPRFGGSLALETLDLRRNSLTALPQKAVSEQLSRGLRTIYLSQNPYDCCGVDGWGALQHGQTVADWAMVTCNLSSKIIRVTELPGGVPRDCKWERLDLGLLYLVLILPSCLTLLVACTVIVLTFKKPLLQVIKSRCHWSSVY

What was measured:
[1] = biological target: human LTBP1-proTGFβ1 complex (human) (UniProt Q14766); experiment: FIG. 2B binding assay
[2] = biological target: mouse LTBP1-proTGFβ1 complex (mouse) (UniProt Q8CG19); experiment: FIG. 2B binding assay
[3] = biological target: human LTBP1-proTGFβ1 complex (human) (UniProt Q14766); experiment: ELISA, biotinylated antigen on NeutrAvidin
[4] = biological target: human LTBP1-proTGFβ1 complex (human) (UniProt Q14766); experiment: Octet BLI (FIG. 11)
[5] = biological target: human LTBP3-proTGFβ1 complex (human) (UniProt Q9NS15); experiment: ELISA on immobilised antigen (Example 4), RLU, mean ± SD
[6] = biological target: human LTBP1-proTGFβ1 complex (human) (UniProt Q14766); experiment: as above
[7] = biological target: mouse LTBP1-proTGFβ1 complex (mouse) (UniProt Q8CG19); experiment: as above
[8] = biological target: human LTBP1-proTGFβ1 complex (human) (UniProt Q14766); experiment: ELISA (FIG. 7A)
[9] = biological target: human LTBP3-proTGFβ1 complex (human) (UniProt Q9NS15); experiment: ELISA (FIG. 9)
[10] = biological target: human LTBP1-proTGFβ1 complex (human) (UniProt Q14766); experiment: ELISA (FIG. 9)
[11] = biological target: human LTBP3-proTGFβ1 complex (human) (UniProt Q9NS15); experiment: ELISA vs. recombinant proTGFβ1 protein complexes, relative binding (RLU)
[12] = biological target: human LTBP1-proTGFβ1 complex (human) (UniProt Q14766); experiment: as above
[13] = biological target: human LTBP1-proTGFβ1 complex (human) (UniProt Q14766); experiment: Octet (bio-layer interferometry), response at 200 nM antigen; 0.1 nm cutoff designates meaningful binding
[14] = biological target: human GARP-proTGFβ1 complex (human) (UniProt Q14392); experiment: as above
[15] = biological target: human LTBP1-proTGFβ1 complex (human) (UniProt Q14766); experiment: Octet, antibody immobilized
[16] = biological target: human LTBP3-proTGFβ1 complex (human) (UniProt Q9NS15); experiment: Octet BLI (FIG. 11)
[17] = biological target: human LTBP3-proTGFβ1 complex (human) (UniProt Q9NS15); experiment: SPR (Biacore 8K), biotinylated antigen captured, Fab as analyte (Example 9); concentrations not shown on the sheet
[18] = biological target: human LTBP1-proTGFβ1 complex (human) (UniProt Q14766); experiment: as above
[19] = biological target: human LRRC33-proTGFβ1 complex (human) (UniProt Q86YC3); experiment: as above
[20] = biological target: human LTBP3-proTGFβ1 complex (human) (UniProt Q9NS15); experiment: SPR Biacore 8K (FIG. 24)
[21] = biological target: human LTBP1-proTGFβ1 complex (human) (UniProt Q14766); experiment: SPR Biacore 8K (FIG. 24)
[22] = biological target: human LTBP3-proTGFβ1 complex (human) (UniProt Q9NS15); experiment: SPR Biacore 8K (FIG. 23)

B1: SR-AB2 (antibody, V domains shown)
VH: QVQLVQSGAEVKKPGASVKVSCKASGYTFTSYGISWVRQAPGQGLEWMGWISAYNGNTNYAQKLQGRVTMTTDTSTSTAYMELRSLRSDDTAVYYCARAPLGNFDSWGQGTMVTVSS
VL: NFMLTQPHSVSESPGKTVTISCTRSSGSIASNYVQWYQQRPGSSPTTVIYEDNQRPSGVPDRFSGSIDSSSNSASLTISGLKTEDEADYYCQSYDSSNHPVVFGGGTKLTVL
- binding [1]: binds
- binding [2]: binds
- binding [3]: binds
- binding [4]: binds
- binding [5]: binds
- binding [6]: binds
- binding [7]: binds
- binding [8]: binds
- binding [9]: binds
- binding [10]: binds
- binding [11]: binds
- binding [12]: binds

B2: SR-AB10 (antibody, IgG1, V domains shown)
VH: QLQLQESGGGVVQPGRSLRLSCAASGFTFNNYPIHWVRQAPGKGLEWVAVMSYDGINKYYADSVKGRFTISRDNSKNTLYLQMNSLRAEDTAVYYCARPRIAARRGGFDYWGQGTLVTVSS
VL: B1 VL with S28N, A30D, S31N, S97D, H99Q, P100G
- binding [13]: binds
- binding [4]: binds

B3: SR-AB22 (antibody, IgG1, V domains shown)
VH: QVQLVESGGGVVQPGRSLRLSCAASGFTFRSYVMHWVRQAPGKGLEWVAVISHEGSLKYYADSVKGRFTISRDNSKNTLYLQMNSLRAEDTAVYYCAVPRIAARRGGFGYWGQGTLVTVSS
VL: B1 VL with S28N, A30D, S31N, S97D, H99Q, P100G
- binding [14]: binds
- binding [13]: binds
- binding [15]: binds

B4: SR-AB31 (antibody, IgG1, V domains shown)
VH: B3 VH
VL: B1 VL with S28N, A30D, S31N, S96F, S97N, H99Q, P100G
- binding [13]: binds

B5: SR-AB34 (antibody, IgG1, V domains shown)
VH: B3 VH
VL: B1 VL with S28N, A30D, S31N, S96Y, S97D, N98A, H99Q, P100G
- binding [14]: binds
- binding [13]: binds

B6: SR-AB37 (antibody, IgG1, V domains shown)
VH: B3 VH
VL: B1 VL with S28L, A30D, S31D, S97D, N98L, H99Q, P100R
- binding [14]: binds
- binding [13]: binds

B7: SR-AB39 (antibody, IgG1, V domains shown)
VH: B3 VH
VL: B1 VL with S28L, A30D, S31D, N53A, S96H, S97D, N98E, H99Q, P100G
- binding [14]: binds
- binding [13]: binds

B8: SR-AB23 (antibody, IgG1, V domains shown)
VH: B3 VH with V98R
VL: B1 VL with S28N, A30D, S31N, S97D, H99Q, P100G
- binding [13]: binds
- binding [15]: binds

B9: SR-AB40 (antibody, IgG1, V domains shown)
VH: B3 VH with V98R
VL: B1 VL with S28N, A30D, S31N, S96Y, H99Q, P100G
- binding [13]: binds

B10: SR-AB41 (antibody, IgG1, V domains shown)
VH: B3 VH with V98R
VL: B1 VL with S28N, A30D, S31N, S96Y, S97D, H99Q, P100A
- binding [13]: binds

B11: SR-AB42 (antibody, IgG1, V domains shown)
VH: B3 VH with V98R
VL: B1 VL with S28N, A30D, S31N, S96Y, S97D, N98T, H99Q, P100G
- binding [13]: binds

B12: SR-AB43 (antibody, IgG1, V domains shown)
VH: B3 VH with V98R
VL: B1 VL with S28N, A30D, S31Y, Q54V, S97D, H99Q, P100R
- binding [13]: binds

B13: SR-AB44 (antibody, IgG1, V domains shown)
VH: B3 VH with V98R
VL: B1 VL with S26H, S28N, A30D, S31D, Q54V, S97D, H99Q, P100L
- binding [14]: binds
- binding [13]: binds

B14: SR-AB45 (antibody, IgG1, V domains shown)
VH: B3 VH with V98R
VL: B1 VL with S28A, A30D, S31D, N53F, S96D, S97D, N98L, H99Q, P100G
- binding [14]: binds
- binding [13]: binds

B15: SR-AB13 (antibody, IgG1, V domains shown)
VH: QLQLQESGPGLVKPSETLSLTCTVSGGSISSSSYYWGWIRQPPGKGLEWIGSISYSGSTYYNPSLKSRVTISVDTSKNQFSLKLSSVTAADTAVYYCARDPSYDSIAGMDVWGQGTTVTVSS
VL: DIQLTQSPSSLSASVGDRVTITCRASQSISSYLNWYQQKPGKAPKLLIYAASNLQSGVPSRFSGSGSGTDFTLTISSLQPEDFATYYCQQSFDFPFTFGGGTKVEIK
- binding [13]: binds
- binding [16]: binds
- binding [4]: binds

B16: SR-AB62 (antibody, IgG1, V domains shown)
VH: B15 VH with V12A, S30R, G57A, S58T, R99S, I106A
VL: B15 VL with L4M, Q27K, S28V, A50Y, N53S, F92N, F94W
- binding [13]: binds

B17: SR-AB64 (antibody, IgG1, V domains shown)
VH: B15 VH with S30R, G57A, S58T, R99G, D110Q
VL: B15 VL with L4M, S31Y, A50S, N53S, L54R, S91G, F96L
- binding [13]: binds

B18: SR-AB42-HuFab (Fab, V domains shown)
VH: B3 VH with V98R
VL: B1 VL with S28N, A30D, S31N, S96Y, S97D, N98T, H99Q, P100G
- binding [17]: binds
- binding [18]: binds
- binding [19]: binds
- binding [20]: binds
- binding [21]: binds

B19: SR-AB63-HuFab (Fab, V domains shown)
VH: B15 VH with S30R, G57A, S58T, R99G, D110Q
VL: B15 VL with F94W, F96L
- binding [22]: binds
